Some of the results follow. Shown are side measurements of this screen, not its main read-out; they come without a call. Compounds called inactive in the main read-out are mostly missing here. Potencies come from curve fits of mixed quality, noted in brackets.
Assay: qHTS Assay for Lipid Storage Modulators in Drosophila S3 Cells;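 as to cell number change: cells counted by Cell Tracker Red CMTPX staining in the red channel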
Conditions: BODIPY lipid droplet fluorescence, 18-24 h; for cell number change: measured here: cell count max response, cells fed with added oleic acid
How it was run: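 Drosophila S3 cells got compounds at several concentrations plus oleic acid (400 uM solution). Laser-scanning cytometry with 488 nm excitation read lipid droplets at 500-530 nm and cells at 575-640 nm. Percent activity was relative to 20 uM Triacsin C.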

[1] = measured here: lipid fluorescence (Fed channel) AC50, cells fed with added oleic acid
[2] = measured here: cell number channel AC50, cells fed with added oleic acid

| SMILES | cell number change | AC50 [1] | AC50 [2] |
| --- | --- | --- | --- |
| Cc1ccc(S(=O)(=O)NCC(=O)Nc2ccc3c(c2)OCO3)cc1 | 6.58% | 6.31 µM [rising, single point] |  |
| CCN1CCN(c2ccc(S(=O)(=O)N3CCCCC3)cc2NC(=O)/C=C/c2cc(OC)ccc2OC)CC1 | -0.697% | 20.6 µM [falling, single point] | 1.64 µM [rising, partial curve, poor fit] |
| COc1cccc(/C=N/n2c(C)nc3ccccc3c2=O)c1O | -84.5% | 0.58 µM [rising, full curve, poor fit] | 29.1 µM [falling, single point] |
| Cc1ccc2nc(SCC(=O)Nc3cccnc3Cl)[nH]c2c1 | 22.8% | 29.1 µM [rising, single point] |  |
| CC(C)CNC(=O)C(=O)NCC1CCCN1S(=O)(=O)c1cccs1 (configuration not stated) | 11.6% |  |  |
| CNc1c(C(=O)O)ccc2c1C(=O)c1ccccc1C2=O | -22.8% | 3.66 µM [rising, partial curve] |  |
| N#Cc1ccc(CN2CCN(C(=O)CC(NC(=O)c3ccccc3)c3ccccc3)CC2)cc1 (configuration not stated) | 10.3% |  |  |
| COC(=O)c1c(NC(=O)COC(=O)c2ccccn2)sc(C)c1C |  | 2.59 µM [rising, single point] |  |
| CC[N+](CC)(CC)CCOc1cccc(OCC[N+](CC)(CC)CC)c1OCC[N+](CC)(CC)CC | -22.3% | 5.8 µM [falling, single point] |  |
| CCOC(=O)N1CCN(S(=O)(=O)c2ccc(C(=O)N(CCCN(C)C)c3nc4c(F)cc(F)cc4s3)cc2)CC1 | 64% |  |  |
| COC(=O)c1ccc(NC(=O)c2ccc3c(c2)C(=O)N(C)C3=O)cc1 | 10.6% | 29.1 µM [rising, single point] |  |
| CCn1c(CC(=O)Nc2ccc(F)cc2)nnc1SCC(=O)N1CCOCC1 | -11.7% |  |  |
| COc1ccc(-c2nc3ccc(N4CCN(C)CC4)cc3c(=O)[nH]2)cc1 | 37.5% | 1.16 µM [falling, single point] |  |
| Cc1cccc(NC(=O)CSc2nc3c(c(=O)[nH]2)CCCC3)c1C | 42.4% | 6.51 µM [falling, single point] | 2.91 µM [rising, partial curve] |
| N=c1c2c(n(Cc3ccc(Br)cc3)c3c1CCC3)CCCC2 | -63.1% | 32.6 µM [falling, single point] | 32.6 µM [falling, single point] |
| CCOc1ccc(-n2c(=O)c3c4c(sc3n(CC(=O)NCC3CCCO3)c2=O)CCCC4)cc1 (configuration not stated) |  |  | 0.366 µM [rising, partial curve, poor fit] |
| CCCCC(=O)N/N=C/c1ccc(Sc2cccc3cccnc23)o1 | -42.8% |  | 29.1 µM [falling, single point] |
| Cc1nc(SCCOc2ccccc2)[nH]c(=O)c1Cc1ccccc1 | -19.2% | 1.84 µM [falling, partial curve] |  |
| O=C(N/N=C/c1ccccn1)c1cc([N+](=O)[O-])cc([N+](=O)[O-])c1 | -12.1% | 0.058 µM [falling, full curve, poor fit] |  |
| Cc1nnc(N)s1 | -47.6% |  |  |

Single entries from the list.
cell number change, `Cc1nc(SCCOc2ccccc2)[nH]c(=O)c1Cc1ccccc1` is entered as -19.2%
AC50 [1], `CNc1c(C(=O)O)ccc2c1C(=O)c1ccccc1C2=O` is entered as 3.66 µM [rising, partial curve]
AC50 [1], `Cc1ccc2nc(SCC(=O)Nc3cccnc3Cl)[nH]c2c1` is entered as 29.1 µM [rising, single point]

(more compounds)

| SMILES | cell number change | AC50 [1] | AC50 [2] |
| --- | --- | --- | --- |
| CCC(C)[C@H](NC(=O)NCC1CCCO1)C(=O)OC (some centres not stated) | -43.8% | 0.411 µM [falling, full curve] | 0.461 µM [falling, full curve, poor fit] |
| O=C(Cn1nnc(-c2ccccc2)n1)NCc1ccc2c(c1)OCO2 | -30.9% | 6.51 µM [falling, full curve, poor fit] | 8.2 µM [falling, partial curve, poor fit] |
| CCCCCOc1ccc(OC(=O)c2ccncc2)cc1 | -15.6% | 29.1 µM [falling, single point] |  |
| Cc1ccc(C(=O)Nc2nnc(-c3ccco3)o2)cc1 | 14.4% |  |  |
| O=C(c1c[nH]c2ccc(S(=O)(=O)N3CCOCC3)cc2c1=O)N1CCN(c2ccccn2)CC1 | 22.9% | 25.9 µM [rising, single point] |  |
| O=C(CCc1nc2sc3c(c2c(=O)[nH]1)CCCC3)NCC(=O)Nc1ccccc1Br | -2.26% | 0.00411 µM [rising, full curve, poor fit] |  |
| COc1ccc(CCN2CC(C(=O)Nc3ccccc3F)CC2=O)cc1OC (configuration not stated) |  |  | 3.66 µM [falling, single point] |
| CCOc1ccc(CCNC(=O)Cn2nc(C)c3c(C)n(-c4ccccc4)nc3c2=O)cc1 | -2.31% |  |  |
| COc1ccccc1C(=O)NCCC(=O)NNC(=O)C1COc2ccccc2O1 (configuration not stated) | 1% |  |  |
| O=C(Nc1nc(-c2ccccn2)cs1)c1ccc(S(=O)(=O)N2CCCCC2)cc1 | -32.2% | 10.3 µM [falling, partial curve] | 16.4 µM [falling, partial curve] |
| Cc1cnc([N+](=O)[O-])n1CCOC(=O)NC(=O)c1ccccc1 | 13% |  |  |
| CCCn1c(N)c(C(=O)CSc2nnc(-c3cccnc3)n2-c2ccc(C)cc2C)c(=O)[nH]c1=O | 20.1% | 18.4 µM [rising, single point] |  |
| COc1ccc2[nH]c3c(=O)n(Cc4ccc(C(=O)NCC5CCCO5)cc4)c(=S)[nH]c3c2c1 (configuration not stated) |  | 0.00461 µM [falling, full curve, poor fit] |  |
| Nc1nonc1-c1nc2ccccc2[nH]1 | -14.4% |  |  |
| COc1ccccc1Nc1ccc(NS(=O)(=O)c2ccc(C(C)=O)cc2)cc1 | 29.1% |  | 4.11 µM [rising, full curve, poor fit] |
| COc1ccc(C(=O)C2CCCN(Cc3c(O)cccc3OC)C2)cc1OC (configuration not stated) | 12.6% | 0.58 µM [rising, single point] |  |
| COc1ccc(N2CCN(C(=S)Nc3cccc(OC)c3)CC2)cc1 | -2.93% | 0.82 µM [falling, full curve] |  |
| Cc1ccc(NC(=O)C(C)SCc2nc3sc4c(c3c(=O)[nH]2)CCCC4)nc1 (configuration not stated) | 10.7% |  |  |
| O=C1C(Cc2ccccc2)Nc2ncnc(N3CCN(c4ccccc4)CC3)c2N1Cc1ccc(Cl)cc1 (configuration not stated) | 28.2% | 29.1 µM [rising, partial curve, poor fit] |  |
| CCNC(=O)NC(=O)C(C)OC(=O)c1cc(S(=O)(=O)N2CCCCCC2)ccc1OC (configuration not stated) | 46.6% |  | 1.84 µM [rising, partial curve] |

| SMILES | cell number change | AC50 [1] | AC50 [2] |
| --- | --- | --- | --- |
| O=C(NC1CCCC1)C(c1ccncc1)N(C(=O)c1ccco1)c1ccc(Cl)cc1 (configuration not stated) | 4.17% | 0.291 µM [falling, full curve] |  |
| CN(C(=O)c1ccccc1-c1ccccc1C(=O)O)c1ccccc1 | 15% | 0.366 µM [rising, partial curve, poor fit] |  |
| Cc1ccc(NC(=O)CN(C)C(=O)COc2ccc(C(=O)c3ccc(F)cc3)cc2)cc1 | -3.37% | 29.1 µM [rising, single point] | 0.0461 µM [falling, full curve, poor fit] |
| COc1ccc(C(CNC(=O)c2[nH]c(C)c(C(C)=O)c2C)N2CCOCC2)cc1 (configuration not stated) | 5.39% | 23.1 µM [rising, single point] |  |
| CNC(=O)OC(C)CNS(=O)(=O)c1ccc(C)cc1 (configuration not stated) | -29.5% | 18.4 µM [falling, partial curve] | 1.03 µM [falling, full curve, poor fit] |
| O=C(NC1CCOc2ccccc21)c1ccccn1 (configuration not stated) | 18.8% |  |  |
| CCS(=O)(=O)N1CCC(C(=O)NCc2ccccc2OC)CC1 | -16.3% |  |  |
| COc1ccccc1OCCNC(=O)CNC(=O)c1ccc(C(C)(C)C)cc1 | -44.1% | 16.4 µM [falling, partial curve, poor fit] | 2.31 µM [falling, partial curve, poor fit] |
| CC(C)CC1Nc2ncnc(N3CCN(c4ccccc4)CC3)c2N(Cc2ccccc2)C1=O (configuration not stated) | -4.98% | 20.6 µM [rising, partial curve] |  |
| CCCOc1ccc(C(=O)CCCC(=O)c2ccc(OCCC)cc2)cc1 |  | 29.1 µM [rising, single point] |  |
| C/C(=N\Nc1nc(N)cc(Cl)n1)c1cccc(N)c1 | 16.6% | 25.9 µM [falling, single point] |  |
| COC(=O)c1cc(NS(=O)(=O)c2ccc(NC(C)=O)cc2)ccc1Cl | 20.6% | 29.1 µM [rising, single point] | 6.51 µM [rising, single point] |
| CSc1ccc(/C=N/Nc2cccc(C(=O)O)c2)cc1 |  | 5.8 µM [falling, partial curve, poor fit] |  |
| COC(=O)C(C)Sc1nnc(Cc2cc(=O)[nH]c(=O)[nH]2)n1-c1ccc(OC)cc1 (configuration not stated) | 13.2% |  |  |
| COc1ccc2nc(C)cc(N/N=C/c3ccccc3)c2c1 | -52.1% | 29.1 µM [rising, single point] | 25.9 µM [falling, partial curve] |
| O=C(Cc1ccsc1)N1CCN(S(=O)(=O)c2cccc(F)c2)CC1 | 30.3% |  | 18.4 µM [rising, single point] |
| NCC(O)(c1ccc(Cl)cc1)c1ccc(Cl)cc1 | -9.93% | 23.1 µM [rising, single point] |  |
| Cc1ccc(C(=O)OCC(=O)Nc2ccccc2)cc1S(=O)(=O)N1CCCCC1 | -1.82% | 0.731 µM [falling, partial curve, poor fit] |  |
| COc1ccc(NC(=O)CC(C)c2ccccc2)c([N+](=O)[O-])c1 (configuration not stated) |  | 6.51 µM [rising, partial curve] |  |
| Cc1ccc(-n2nc3ccc(NC(=O)C(C)C)cc3n2)cc1 | -38.9% | 29.1 µM [falling, single point] | 29.1 µM [falling, single point] |

Reference: PubChem BioAssay AID2685 (National Center for Advancing Translational Sciences (NCATS), 2010)
